These are yes or no findings as the source states them, for the method shown. A result given as binding can be weak or reduced; the word gives no strength. Where a sequence is shown, tags or fusion partners need not be part of it.

Experiment [1] has as its target SUN domain of human SUN1 (amino acid residues 616–812), tags removed (human). As to the kind of experiment: crystal structure; SUN1-KASH5 complex at 25 mg/ml, sitting drops, 20°C; one copy of SUN1 and KASH5 per asymmetric unit; 1.54 Å; both purified.
For experiment [2] the target is unchanged. The experiment in a line: SEC-SAXS; samples at >10 mg/ml on Superdex 200 Increase 10/300 GL in 20 mM Tris pH 8.0, 150 mM KCl; scattering fitted with crystal structures and models; both purified.
Experiment [3] shares this target. The experiment in a line: SEC-MALS; dilution series of SUN1-KASH complexes at 1.0, 0.1 and 0.01 mg/ml in 20 mM Tris pH 8.0, 150 mM KCl, 2 mM DTT; both purified. (SEC sorts molecules by how far they enter the pores of the column.)
For experiment [4] the target is unchanged. As to the kind of experiment: crystal structure; SUN1-KASH4 complex at 25 mg/ml, sitting drops, 20°C; six copies of SUN1 and KASH4 per asymmetric unit; three zinc ions; 2.75 Å; both purified.
For experiment [5], the target named is GCN4-SUN1 F671E (His6-GCN4 fusion of SUN1 616–812 F671E) (human). The experiment in a line: SEC; GCN4-SUN and MBP-KASH co-expressed, purified by amylose affinity and ion exchange, whole elution pooled and run on analytical gel filtration (Superdex 200 Increase 10/300 GL) in 20 mM Tris pH 8.0, 150 mM KCl, 2 mM DTT; fractions by SDS-PAGE; both purified.
Experiment [6] has as its target GCN4-SUN1 I673E (His6-GCN4 fusion of SUN1 616–812 I673E) (human). The experiment is described as above.

As to GPSPPPTWPHLQLCYLQPPPV (domain or fragment, UniProt Q8N6L0 542-562) [KASH domain of human KASH5 (amino acid residues 542–562), tags removed], the binding result in experiment [1] and in experiment [2] was “binds” each time.
Take ASGGPCCSHARIPRTPYLVLSYVNGLPPV (domain or fragment, UniProt Q8N205 376-404) [KASH domain of human Nesprin-4 (KASH4, amino acid residues 376–404), tags removed]: the binding entry in experiment [3], in experiment [4] and in experiment [2] was “binds” throughout.
For the molecule ASGGPCCSHARIPRTPYLVLSYVNGLPPV (domain or fragment, UniProt Q8N205 376-404) [MBP-KASH4 (His6-MBP fusion of the KASH domain of human Nesprin-4, residues 376–404)], the binding result in experiment [5] and in experiment [6] was “binds” each time.
GPSPPPTWPHLQLCYLQPPPV (domain or fragment, UniProt Q8N6L0 542-562) [MBP-KASH5 (His6-MBP fusion of the KASH domain of human KASH5, residues 542–562)]: the binding result in experiment [5] and in experiment [6] was “binds” throughout.
